From ROBIN, a set of small-molecule microarray screens (doi:10.1002/anie.202211358).

Targets, with sequences 5′ to 3′:
SAM-II: SAM-II riboswitch RNA pseudoknot, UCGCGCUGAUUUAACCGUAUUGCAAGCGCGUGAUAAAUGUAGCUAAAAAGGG. About 21,000 compounds screened, about 200 hits.
PreQ1: PreQ1 riboswitch RNA pseudoknot, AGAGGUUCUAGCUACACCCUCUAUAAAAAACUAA. From B. subtilis. About 24,000 compounds screened, about 170 hits.
TPP: TPP riboswitch RNA three-way junction, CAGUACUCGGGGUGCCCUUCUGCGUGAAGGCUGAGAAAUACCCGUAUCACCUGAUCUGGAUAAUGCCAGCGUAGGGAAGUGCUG. About 24,000 compounds screened, about 160 hits.

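The test is a small-molecule microarray: each compound is printed twice on a reactive slide, and binding shows as fluorescence of the labelled oligonucleotide after washing. For the PreQ1, TPP and SAM-II riboswitches the laboratory earlier reported (doi:10.1038/s41467-019-09493-3) 1 µM RNA, 2 h, and a rule that included a mean Z-score above 3 (spot signal-to-noise against the whole library), a score well above that on a control array, and duplicate spots agreeing (coefficient of variation under 100). The data file gives only the calls; its cut-offs may differ, and compounds hitting several targets are kept. A missing hit is not proof of no binding, and a hit is not a measured affinity.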
“hit” means called a hit, “no hit” means screened and not called a hit.
This is an unselected part of the compounds tested.
A target missing from an entry has no call listed here.

SMILES: COc1ccc(SCCNC2CCOC3(CCOCC3)C2)cc1 (stereo unspecified)
SAM-II: no hit
PreQ1: no hit
TPP: no hit

SMILES: NC(=O)c1c(OCc2c(F)cc(Br)cc2F)nsc1NC(=O)NCCCCN1CCCC1
SAM-II: no hit
PreQ1: no hit
TPP: hit

SMILES: Cc1c(C)c2c(c(C)c1NC(=O)CCc1cc3n(n1)CCNC3)NC(=O)CO2
SAM-II: no hit
PreQ1: no hit
TPP: no hit

SMILES: CC(C(=O)NCc1ccccc1)N1C(=O)NC2(CCNCC2)C1=O (stereo unspecified)
SAM-II: no hit
PreQ1: no hit
TPP: no hit

SMILES: CSc1cccc(CN(C)CC2CCNCC2)c1
SAM-II: no hit
PreQ1: no hit
TPP: no hit

SMILES: O=C(c1cc2c(ccc3ccccc32)oc1=O)N1CCN(CCO)CC1
SAM-II: no hit
PreQ1: no hit
TPP: no hit

SMILES: O=C1CC(NCCCCO)C(=O)N1c1ccc(Br)cc1 (stereo unspecified)
SAM-II: no hit
PreQ1: no hit
TPP: no hit

SMILES: Cc1ccsc1CCNC(=O)c1ccccc1C1CCNC1 (stereo unspecified)
SAM-II: no hit
PreQ1: no hit
TPP: no hit

SMILES: CCc1c(C)cc(C(=O)N2CC[C@@H](N)[C@@H](OC)C2)c(=O)n1C
SAM-II: no hit
PreQ1: no hit
TPP: no hit

SMILES: CCOC(=O)c1c(N)n(-c2ccc(CC)cc2)c2nc3ccccc3nc12
SAM-II: no hit
PreQ1: no hit
TPP: no hit

SMILES: CCCc1cc(CN(C)Cc2nnc(CC3CCNCC3)n2C)n[nH]1
SAM-II: no hit
PreQ1: no hit
TPP: no hit

SMILES: CCCc1cc(C(=O)N2CC[C@@H](c3sccc3C)[C@H](O)C2)no1
SAM-II: no hit
PreQ1: no hit
TPP: no hit

SMILES: CSc1ccc(C2c3c(oc4cc(C)cc(C)c4c3=O)C(=O)N2CCO)cc1 (stereo unspecified)
PreQ1: no hit
TPP: no hit

SMILES: CSc1nc(NCC2CCCO2)c(C#N)c(-c2ccccc2)n1 (stereo unspecified)
PreQ1: no hit
TPP: no hit

SMILES: CN(Cc1cnc(N)nc1)C(=O)CC12CC3CC(CC(C3)C1)C2
SAM-II: no hit
PreQ1: no hit
TPP: no hit

SMILES: CN(C)Cc1c(C(=O)NCCOc2ccc(C(=O)NO)cc2)oc2ccccc12
SAM-II: no hit
PreQ1: no hit
TPP: no hit

SMILES: CN(CCO)c1cc2c3c(cccc3n1)C(=O)c1ccccc1-2
SAM-II: no hit
PreQ1: no hit
TPP: no hit

SMILES: COc1ccc(-c2cnc(NCc3cccc(Br)c3)n2C)cc1
SAM-II: no hit
PreQ1: no hit
TPP: no hit

SMILES: Cc1ncc([N+](=O)[O-])n1CCOC(N)=O
SAM-II: no hit
PreQ1: no hit
TPP: no hit

SMILES: Nc1ccc(S(=O)(=O)NCc2ccco2)cc1
SAM-II: no hit
PreQ1: no hit
TPP: no hit

SMILES: CC(O)c1nc2ccccc2n1CCCOc1cccc2ccccc12 (stereo unspecified)
SAM-II: no hit
PreQ1: no hit
TPP: no hit

SMILES: CCOc1ccc(-c2noc(-c3nnn(-c4cccc(C)c4)c3N)n2)cc1
PreQ1: no hit
TPP: no hit

SMILES: C[N+]1=C(C=CNc2ccccc2Cl)C(C)(C)c2ccccc21
SAM-II: no hit
PreQ1: no hit
TPP: no hit

SMILES: CCc1cnc(N)nc1N(C)CC1CCN(CCO)CC1
SAM-II: no hit
PreQ1: no hit
TPP: no hit

SMILES: Cc1ccc2c(c1)c(-c1ccccc1)c(-c1ccccc1)n2CC(O)CN1C(=O)CSC1=O (stereo unspecified)
SAM-II: no hit
PreQ1: no hit
TPP: no hit

SMILES: Nc1nc(SCC(=O)NCCN2CCOCC2)nc2sc3c(c12)CCC3
SAM-II: no hit
PreQ1: no hit
TPP: no hit

SMILES: Cc1nc(C)c(C(=O)N[C@@H]2CCNC[C@H]2O)s1
SAM-II: no hit
PreQ1: no hit
TPP: no hit

SMILES: OCC1(CC2CC2)CCCN(C2CSCCSC2)C1 (stereo unspecified)
SAM-II: no hit
PreQ1: no hit
TPP: no hit

SMILES: CCOc1ccc(CNCCc2ccccc2)cc1
SAM-II: no hit
PreQ1: no hit
TPP: no hit

SMILES: O=C(CC1COCCN1)NCc1csc2ccc(Cl)cc12 (stereo unspecified)
SAM-II: no hit
PreQ1: no hit
TPP: no hit

SMILES: CCOC(=O)c1cnc2c(-c3ccc(Br)cc3)c(C)nn2c1N
PreQ1: hit
TPP: no hit

SMILES: CNCCN1C(=O)CC[C@H]2CN(C(=O)C3(C#N)CC3)CC[C@H]21
SAM-II: no hit
PreQ1: no hit
TPP: no hit

SMILES: CCOc1ccc(NC(=O)c2sc3nc4c(cc3c2N)CN(C)CC4)cc1
SAM-II: no hit
PreQ1: no hit
TPP: no hit

SMILES: CC(C)(C)NCc1ccc(Cl)cc1
SAM-II: no hit
PreQ1: no hit
TPP: no hit

SMILES: OCc1cc(-c2ccc3c(c2)OCO3)no1
SAM-II: no hit
PreQ1: no hit
TPP: no hit

SMILES: NCCc1nc(N(CCc2ccccc2)Cc2cccnc2)c2ccccc2n1
SAM-II: no hit
PreQ1: no hit
TPP: no hit

SMILES: Cc1cc(C(F)(F)F)nc(N2CCN(c3cccc(C(C)O)n3)CC2)n1 (stereo unspecified)
SAM-II: no hit
PreQ1: no hit
TPP: no hit

SMILES: OC(C#CCN1CCCCC1c1cccnc1)c1ccccc1 (stereo unspecified)
SAM-II: no hit
PreQ1: no hit
TPP: no hit

SMILES: OC(Cc1ccccc1)C1CCN(Cc2cnn3cccnc23)CC1 (stereo unspecified)
SAM-II: no hit
PreQ1: no hit
TPP: no hit

4 of the entries, repeated:

- CN(Cc1cnc(N)nc1)C(=O)CC12CC3CC(CC(C3)C1)C2 : SAM-II: no hit; PreQ1: no hit; TPP: no hit
- CN(CCO)c1cc2c3c(cccc3n1)C(=O)c1ccccc1-2 : SAM-II: no hit; PreQ1: no hit; TPP: no hit
- CCOc1ccc(NC(=O)c2sc3nc4c(cc3c2N)CN(C)CC4)cc1 : SAM-II: no hit; PreQ1: no hit; TPP: no hit
- Nc1ccc(S(=O)(=O)NCc2ccco2)cc1 : SAM-II: no hit; PreQ1: no hit; TPP: no hit